Measurements reported in publication PMC7819943, “Rice protein-binding microarrays: a tool to detect cis-acting elements near promoter regions in rice”.
This is one part of the list.

Sequences of proteins named here, by UniProt entry; tags and fusion partners are left off.
UniProt Q0JBA9, entry or part of it: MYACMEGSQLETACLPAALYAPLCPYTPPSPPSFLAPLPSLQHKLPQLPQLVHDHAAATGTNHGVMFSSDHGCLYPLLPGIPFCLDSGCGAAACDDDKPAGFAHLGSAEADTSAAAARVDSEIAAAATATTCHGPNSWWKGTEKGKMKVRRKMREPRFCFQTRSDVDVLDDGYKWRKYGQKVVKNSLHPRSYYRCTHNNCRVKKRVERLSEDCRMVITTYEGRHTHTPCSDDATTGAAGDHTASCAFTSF

What follows are sequences tested against OsWRKY34 (Oryza sativa, UniProt Q0JBA9 1-250) (assay: protein-binding microarray (RPBM); PBS, 2% BSA, 51.3 ng/ul salmon testes DNA, 50 uM zinc acetate, 200 nM TF, 25 C, 1 h; high values mean tight binding). Details: protein: recombinant; tags: N-terminal polyhistidine and DsRed monomer fusion (pET32a); label: CyDye5-dUTP incorporated in the synthesized complementary strand; 3' TTTTT single-stranded linker to array surface; dsDNA, one strand shown.
Outline: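 The binding signal is fluorescence intensity per feature, in arbitrary units, read on an Axon 4000B scanner. Polyhistidine- and DsRed-tagged transcription factors (N-terminal fusions) from E. coli BL21-CodonPlus were purified on Ni–NTA and applied at 200 nM for 1 h at 25 °C to a double-stranded, BSA-blocked custom Agilent array in buffer with 50 µM zinc acetate.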

Sequence | binding signal
GCCCGTACAGCCAACTCCACACCGCGTTCTGCAGCCACGTCGGAGTCACCTAGTGCAG | 8800 fluorescence intensity (a.u.)
AGTCAAGAACTGCGACTGTTTTGTCTGCATCGAATTCTTTCGGAGTCACCTAGTGCAG | 8030 fluorescence intensity (a.u.)
TCCCCGAGCCCCGCGTCCTGCGCCACCGCCGCCCCGGCGACGGAGTCACCTAGTGCAG | 9520 fluorescence intensity (a.u.)
ATTTTTTCATGTGTGTGTGTGGAGTATTAAATTTGAAAGTCGGAGTCACCTAGTGCAG | 8750 fluorescence intensity (a.u.)
TGAGCCTCAATCTTCTTGTTGGGCCGATACTTTCTCTATTCGGAGTCACCTAGTGCAG | 8340 fluorescence intensity (a.u.)
ATTAGCAATTTAGCTGCTCTTCTTGTTTTTTTTTCCTTAACGGAGTCACCTAGTGCAG | 9790 fluorescence intensity (a.u.)
GTCACATCAGTTTGGTATATGTAGAAGTGTAGTAAGAATCCGGAGTCACCTAGTGCAG | 8610 fluorescence intensity (a.u.)
AAGGGGAAGAGTGGAGGGAGTGGGAAGGGCGGCGACCGGCCGGAGTCACCTAGTGCAG | 8570 fluorescence intensity (a.u.)
TTTGTCATCAACTTTTTTGCATTTTGGTTGTGTCTTGTTCCGGAGTCACCTAGTGCAG | 8120 fluorescence intensity (a.u.)
GTGGTGCTTCATGCCTATCACTGCCCACGAAGACCAAGCCCGGAGTCACCTAGTGCAG | 8040 fluorescence intensity (a.u.)
CTCGAGCGCCGACTTCTCCGGGACGAAGTCCATGCGGCGCCGGAGTCACCTAGTGCAG | 9020 fluorescence intensity (a.u.)
CGACCGCGCCACACGCATCCCCACGCCACCCTAACCACACCGGAGTCACCTAGTGCAG | 8620 fluorescence intensity (a.u.)
GCCACCACGCTACGCTACACCACTTCACTTCACGCATCCGCGGAGTCACCTAGTGCAG | 10200 fluorescence intensity (a.u.)
AGAAATTAATTTCTCTCGGTATTTTCTTCTTTCTTCTCTCCGGAGTCACCTAGTGCAG | 9170 fluorescence intensity (a.u.)
GTTAGTTATCTTGGACATCTCCCTCCTAGACCTCATTTCGCGGAGTCACCTAGTGCAG | 9700 fluorescence intensity (a.u.)
GAACGCGTAAGTGGAGTCAAACATTTCCTTTCCGCCAGACCGGAGTCACCTAGTGCAG | 8070 fluorescence intensity (a.u.)
ATAGTGGTATATGTGCGTATGATTGTTTCGTGTTTAAGAACGGAGTCACCTAGTGCAG | 10600 fluorescence intensity (a.u.)
ATATATTGTACTCCTCTATGTTCTATCTATTATATGCAATCGGAGTCACCTAGTGCAG | 10700 fluorescence intensity (a.u.)
TCTTTTTTTTTCGCCGGTTTTTATGGTTGTTTTCTTCGGTCGGAGTCACCTAGTGCAG | 11600 fluorescence intensity (a.u.)
TTCCTTTTTTTATGCAACTTTGACAAGCCTAATAGATATACGGAGTCACCTAGTGCAG | 8500 fluorescence intensity (a.u.)
AATTCTTTCTCCATTTCTTGAACCGAACTACTCCAGTCTACGGAGTCACCTAGTGCAG | 8600 fluorescence intensity (a.u.)

Looked up one by one from above, two records:
Sequence | binding signal
ATAGTGGTATATGTGCGTATGATTGTTTCGTGTTTAAGAACGGAGTCACCTAGTGCAG | 10600 fluorescence intensity (a.u.)
AGAAATTAATTTCTCTCGGTATTTTCTTCTTTCTTCTCTCCGGAGTCACCTAGTGCAG | 9170 fluorescence intensity (a.u.)

Continued.

Sequence | binding signal
CGCCTCGCCGTCCCCACCCATAGCCGATCCTGTGCCACTCCGGAGTCACCTAGTGCAG | 8100 fluorescence intensity (a.u.)
CTACTCCCTTCGTTTCAGGTTATAAGACGTTTTGACTTTGCGGAGTCACCTAGTGCAG | 9610 fluorescence intensity (a.u.)
GACGTAGTCGTGCGCTCATCATCTCGCTTACGCTCTCACGCGGAGTCACCTAGTGCAG | 10900 fluorescence intensity (a.u.)
TCTGACAGATATATCCATCAATCAGTCCCGTCCGTGCCCGCGGAGTCACCTAGTGCAG | 8500 fluorescence intensity (a.u.)
GTTGTTCCTTTTTTTTGGGCACAGTTAAGCATGGCCAAGACGGAGTCACCTAGTGCAG | 9550 fluorescence intensity (a.u.)
CACCACCGTCTCCACCACCACCTCCGGCCCACCTCCTCCTCGGAGTCACCTAGTGCAG | 8220 fluorescence intensity (a.u.)
CCCATCCATAATCTTGGAGTAATTCGCGAGACGAATCTATCGGAGTCACCTAGTGCAG | 8110 fluorescence intensity (a.u.)
TATTTTTTTATATTTAATTCATTTTATATGTGCCTTTGAACGGAGTCACCTAGTGCAG | 8130 fluorescence intensity (a.u.)
CCGGTCCGCCGCCATCCCGCCGTCTCTCTCCCCACCACCGCGGAGTCACCTAGTGCAG | 9340 fluorescence intensity (a.u.)
TTACATTGCTAATTCTTATTTCACTGGCCTTAATATATAACGGAGTCACCTAGTGCAG | 10100 fluorescence intensity (a.u.)
GTAGTTTTTTTCCTAGTTTCAGTTTTTGTTTTGCTTTTTTCGGAGTCACCTAGTGCAG | 11200 fluorescence intensity (a.u.)
AATTTTTGCTCTCATTACCAATAGTGCTCACCACCGACTCCGGAGTCACCTAGTGCAG | 8590 fluorescence intensity (a.u.)
AATTCATCATCGGCAACTTTTATCCATGGTGTTTAACAATCGGAGTCACCTAGTGCAG | 8110 fluorescence intensity (a.u.)
ACTCTTTCACGTCACAACACTTTCACGTCCTTTGGTTAGTCGGAGTCACCTAGTGCAG | 9520 fluorescence intensity (a.u.)
TGTTCTTGTTTGTGTTTTCTTCTTCGTCTCCGGCGACGGCCGGAGTCACCTAGTGCAG | 10000 fluorescence intensity (a.u.)
CAACTATCTTCTTATTTTATTCTTGGTTCTTGTGTAGAGACGGAGTCACCTAGTGCAG | 8370 fluorescence intensity (a.u.)
GCTTCATCCGTCTTAAAATAAACCAACCACGTATCGGATACGGAGTCACCTAGTGCAG | 8100 fluorescence intensity (a.u.)
AAGCAGCAGGTCACTTTCTTCCCTTCATTTCCTTAATTAACGGAGTCACCTAGTGCAG | 8220 fluorescence intensity (a.u.)
ATCTTGCACTTTAGTCCTTCGTGTCAGGACGATATTTCATCGGAGTCACCTAGTGCAG | 8192 fluorescence intensity (a.u.)
TAGCCCAAAAGTTGTGTTCATTCTCGTTACAGTCTTACAGCGGAGTCACCTAGTGCAG | 9480 fluorescence intensity (a.u.)
AAACGATTTGTGCCTACTCTACTTTCTTATCTAGGACTTCCGGAGTCACCTAGTGCAG | 9580 fluorescence intensity (a.u.)
